These are yes or no findings as the source states them, for the method shown. Some entries that bind do so weakly or less than the wild type.
T1: human Eva1 protein (human, UniProt O60487 27-150, limits assumed)
T1 construct: Soluble analyte in the SPR work and partner in the crystal; it calls it 'the antigen, that is, the Eva1 protein'; also called human-derived Eva1 protein; hEva1
T1 sequence: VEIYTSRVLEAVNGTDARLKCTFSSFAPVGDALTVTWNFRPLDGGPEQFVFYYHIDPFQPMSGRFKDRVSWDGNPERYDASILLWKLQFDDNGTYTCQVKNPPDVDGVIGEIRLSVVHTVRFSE

T2: mouse Eva1 protein (mouse, UniProt O70255 27-150, limits assumed)
T2 construct: Used in SPR; also called mouse-derived Eva1 protein; mEva1
T2 sequence: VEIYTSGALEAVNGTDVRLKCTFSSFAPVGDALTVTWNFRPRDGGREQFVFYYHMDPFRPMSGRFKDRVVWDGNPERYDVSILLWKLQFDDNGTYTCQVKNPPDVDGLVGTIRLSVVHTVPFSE


Legend:
[1] = biological target: T1, human Eva1 protein; experiment: SPR (Biacore)
[2] = biological target: T1, human Eva1 protein; experiment: SPR
[3] = biological target: T2, mouse Eva1 protein; experiment: SPR
[4] = biological target: T1, human Eva1 protein; experiment: crystal structure, 2.0 angstrom

binding [1] | binding [2] | binding [3] | binding [4] | Binder
binds | binds | binds |  | C3 mouse antibody (antibody, mouse IgG1, V domains shown, Mouse monoclonal from a hybridoma; also called C3 antibody) VH: EVKLVESGGGLVQPGGSLKLSCAASGFTFSSYTMSWVRQTPEKRLEWVAYITTGAGRTYYPDTVKGRFTISRDNAKNTLYLQMSSLKSEDTAMYYCARHRGDYWGQGTSVTVSS VL: SIVMTQTPKFLLVSAGDRVTITCKASQSVSNDVAWYQQKPGQSPKLLIYYASNRFTGVPDRFTGSGYGTDFTFTISTVQAEDLAVYFCQQDYSSPWTFGGGTKLEIK
binds | binds | binds |  | A5D11-10 mouse antibody (antibody, V domains shown, Mouse monoclonal from a hybridoma; also called A5D11-10 antibody) VH: EVQLKESGPGLVQPSQSLSITCTVSGFSLTRYGVHWVRQSPGKGLEWLGVIWSGGSTDYNAAFISRLSISKDNSKSQVFFKMNSLQANDTAIYYCARNGYDGGYAMDYWGQGTSVTVSS VL: DIQMTQTTSSLSASLGDRVTISCRASQDISNYLNWYQQKPDGTVKLLIYYTSRLHSGVPSRFSGSGSRIDYSLTISNLEQEDFATYFCQQSDTLPPWTFGGGTKLEIK
 |  |  | binds | Fab of the A5D11-10 antibody (Fab, V domains shown) VH: EVQLKESGPGLVQPSQSLSITCTVSGFSLTRYGVHWVRQSPGKGLEWLGVIWSGGSTDYNAAFISRLSISKDNSKSQVFFKMNSLQANDTAIYYCARNGYDGGYAMDYWGQGTSVTVSS VL: DIQMTQTTSSLSASLGDRVTISCRASQDISNYLNWYQQKPDGTVKLLIYYTSRLHSGVPSRFSGSGSRIDYSLTISNLEQEDFATYFCQQSDTLPPWTFGGGTKLEIK
binds | binds |  |  | B2E5-48 mouse antibody (antibody, mouse IgG2b, V domains shown, Mouse monoclonal from a hybridoma; also called B2E5-48 antibody) VH: QVQLQQPGAELVKPGASVKLSCKASGYTFTNYWMHWVKLRPGQGFEWIGEINPTNGGTDYNEKFKRKATLTVDKSSSTAYMQLSSLTSEDSAVYYCTIYTTALDYWGQGTTLTVSS VL: QIVLTQSPALMSASPGERVTLTCSASSSVGYMYWYQQKPGSSPKPWIYVTSNLASGVPARFSGSGSGTSYSLTISSMEAEDAATYYCQQWSSNPPTFGAGTKLELK

From US20190256610A1 (NATIONAL UNIVERSITY CORPORATION HOKKAIDO UNIVERSITY, published 2019)
